Some of the results follow. Small differences around the control level are noise.

By UniProt entry, the sequences of proteins in these tests, tags left out. Where a name states a change or a piece, a line headed by the entry shows the natural chain unless it says otherwise.
UniProt P45527: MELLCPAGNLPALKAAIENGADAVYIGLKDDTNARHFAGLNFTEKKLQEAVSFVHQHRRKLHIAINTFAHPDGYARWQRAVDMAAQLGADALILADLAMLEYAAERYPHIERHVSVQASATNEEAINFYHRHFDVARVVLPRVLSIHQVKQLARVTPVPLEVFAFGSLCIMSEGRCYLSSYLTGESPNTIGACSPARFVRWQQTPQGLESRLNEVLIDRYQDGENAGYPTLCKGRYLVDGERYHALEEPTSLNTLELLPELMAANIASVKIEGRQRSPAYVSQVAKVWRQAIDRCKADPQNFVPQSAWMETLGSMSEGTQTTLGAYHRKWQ
UniProt P39358: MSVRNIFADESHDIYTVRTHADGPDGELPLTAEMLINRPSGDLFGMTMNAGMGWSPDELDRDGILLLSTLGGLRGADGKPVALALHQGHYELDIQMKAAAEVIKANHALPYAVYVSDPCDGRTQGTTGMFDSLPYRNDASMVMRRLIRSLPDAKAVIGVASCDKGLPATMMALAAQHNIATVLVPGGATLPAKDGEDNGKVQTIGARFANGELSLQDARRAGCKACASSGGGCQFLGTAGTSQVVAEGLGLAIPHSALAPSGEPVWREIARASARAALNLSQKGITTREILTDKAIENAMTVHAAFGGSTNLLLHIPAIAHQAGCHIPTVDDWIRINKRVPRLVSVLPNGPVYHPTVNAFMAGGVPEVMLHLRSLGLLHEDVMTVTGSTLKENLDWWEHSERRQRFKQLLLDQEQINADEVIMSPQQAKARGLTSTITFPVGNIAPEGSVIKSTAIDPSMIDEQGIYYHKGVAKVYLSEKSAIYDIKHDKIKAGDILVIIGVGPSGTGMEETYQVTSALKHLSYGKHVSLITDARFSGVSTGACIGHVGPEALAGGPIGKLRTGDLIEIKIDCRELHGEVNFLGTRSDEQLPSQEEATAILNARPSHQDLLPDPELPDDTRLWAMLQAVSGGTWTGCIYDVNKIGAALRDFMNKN
UniProt P37047: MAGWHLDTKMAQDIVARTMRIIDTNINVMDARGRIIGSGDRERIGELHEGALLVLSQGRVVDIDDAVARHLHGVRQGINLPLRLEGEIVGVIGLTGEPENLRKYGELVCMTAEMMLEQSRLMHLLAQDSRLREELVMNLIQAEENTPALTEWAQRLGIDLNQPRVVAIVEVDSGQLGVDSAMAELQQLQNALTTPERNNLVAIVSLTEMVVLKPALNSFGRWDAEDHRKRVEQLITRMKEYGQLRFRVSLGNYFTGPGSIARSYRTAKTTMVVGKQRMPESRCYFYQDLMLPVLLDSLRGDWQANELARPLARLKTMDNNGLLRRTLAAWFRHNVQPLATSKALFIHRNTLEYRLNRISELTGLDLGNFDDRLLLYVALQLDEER
UniProt P36667: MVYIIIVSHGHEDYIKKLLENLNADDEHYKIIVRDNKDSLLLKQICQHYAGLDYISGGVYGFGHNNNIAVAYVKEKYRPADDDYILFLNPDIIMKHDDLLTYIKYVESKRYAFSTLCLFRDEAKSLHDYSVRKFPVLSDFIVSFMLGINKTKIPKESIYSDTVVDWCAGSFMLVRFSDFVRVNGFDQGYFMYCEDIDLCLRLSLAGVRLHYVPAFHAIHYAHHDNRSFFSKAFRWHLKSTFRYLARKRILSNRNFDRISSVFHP
UniProt P39280: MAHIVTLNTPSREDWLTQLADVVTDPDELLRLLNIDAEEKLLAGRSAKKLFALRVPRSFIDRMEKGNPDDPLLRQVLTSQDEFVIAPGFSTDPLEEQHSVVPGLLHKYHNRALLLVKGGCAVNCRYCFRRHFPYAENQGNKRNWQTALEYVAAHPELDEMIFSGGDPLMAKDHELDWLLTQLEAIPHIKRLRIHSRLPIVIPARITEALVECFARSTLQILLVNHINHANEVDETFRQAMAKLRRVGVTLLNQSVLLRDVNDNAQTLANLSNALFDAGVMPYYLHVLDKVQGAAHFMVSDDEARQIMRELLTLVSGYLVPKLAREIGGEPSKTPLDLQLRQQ
UniProt P37642: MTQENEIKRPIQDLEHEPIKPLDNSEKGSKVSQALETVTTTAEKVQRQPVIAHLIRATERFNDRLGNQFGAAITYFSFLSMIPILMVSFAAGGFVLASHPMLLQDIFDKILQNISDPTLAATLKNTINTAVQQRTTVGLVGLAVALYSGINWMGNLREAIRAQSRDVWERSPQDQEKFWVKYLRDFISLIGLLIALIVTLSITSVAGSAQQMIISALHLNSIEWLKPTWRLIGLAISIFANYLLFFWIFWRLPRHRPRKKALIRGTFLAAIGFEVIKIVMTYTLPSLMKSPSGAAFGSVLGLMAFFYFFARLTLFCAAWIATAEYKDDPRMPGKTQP
UniProt P39310: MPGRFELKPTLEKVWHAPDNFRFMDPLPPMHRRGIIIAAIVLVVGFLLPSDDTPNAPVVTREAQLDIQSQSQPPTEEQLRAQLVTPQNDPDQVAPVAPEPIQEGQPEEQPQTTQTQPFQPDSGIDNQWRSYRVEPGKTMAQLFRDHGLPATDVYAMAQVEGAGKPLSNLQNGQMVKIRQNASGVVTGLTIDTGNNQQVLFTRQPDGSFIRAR
UniProt P36999: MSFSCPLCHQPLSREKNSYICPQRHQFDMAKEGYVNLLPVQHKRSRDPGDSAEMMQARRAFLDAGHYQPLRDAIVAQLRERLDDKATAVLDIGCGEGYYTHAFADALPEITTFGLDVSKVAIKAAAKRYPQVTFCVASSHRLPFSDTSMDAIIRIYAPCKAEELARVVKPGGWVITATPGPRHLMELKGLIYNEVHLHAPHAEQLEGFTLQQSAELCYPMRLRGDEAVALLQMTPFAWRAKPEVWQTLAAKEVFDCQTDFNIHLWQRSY
UniProt P37637: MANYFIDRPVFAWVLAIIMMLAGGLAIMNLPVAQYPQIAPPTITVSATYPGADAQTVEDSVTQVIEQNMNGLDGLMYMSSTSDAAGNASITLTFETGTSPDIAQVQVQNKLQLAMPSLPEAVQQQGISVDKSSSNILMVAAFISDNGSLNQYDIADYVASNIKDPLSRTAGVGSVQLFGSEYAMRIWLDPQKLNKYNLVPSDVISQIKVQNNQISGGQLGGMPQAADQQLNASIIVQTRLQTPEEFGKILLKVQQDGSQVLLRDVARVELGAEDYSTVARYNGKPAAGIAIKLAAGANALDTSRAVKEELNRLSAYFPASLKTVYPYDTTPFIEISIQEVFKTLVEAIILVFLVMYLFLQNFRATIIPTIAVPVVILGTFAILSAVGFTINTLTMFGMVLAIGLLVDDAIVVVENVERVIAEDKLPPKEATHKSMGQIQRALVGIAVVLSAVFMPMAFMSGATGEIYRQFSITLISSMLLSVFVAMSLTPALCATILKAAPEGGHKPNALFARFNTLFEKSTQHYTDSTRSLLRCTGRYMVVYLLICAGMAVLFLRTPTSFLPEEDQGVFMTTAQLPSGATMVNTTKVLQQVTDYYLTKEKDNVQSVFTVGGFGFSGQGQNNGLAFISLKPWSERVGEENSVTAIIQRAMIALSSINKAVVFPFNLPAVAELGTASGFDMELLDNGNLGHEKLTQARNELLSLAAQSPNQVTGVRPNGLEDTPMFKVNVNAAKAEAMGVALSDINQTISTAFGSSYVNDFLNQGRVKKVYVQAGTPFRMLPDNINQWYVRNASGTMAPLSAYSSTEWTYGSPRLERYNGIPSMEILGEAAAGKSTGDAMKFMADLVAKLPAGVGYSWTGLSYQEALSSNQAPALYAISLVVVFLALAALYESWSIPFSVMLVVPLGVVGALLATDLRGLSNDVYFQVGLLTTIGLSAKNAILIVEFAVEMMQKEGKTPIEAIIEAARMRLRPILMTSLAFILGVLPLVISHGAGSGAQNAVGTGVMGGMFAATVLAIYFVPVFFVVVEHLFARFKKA
UniProt P42597: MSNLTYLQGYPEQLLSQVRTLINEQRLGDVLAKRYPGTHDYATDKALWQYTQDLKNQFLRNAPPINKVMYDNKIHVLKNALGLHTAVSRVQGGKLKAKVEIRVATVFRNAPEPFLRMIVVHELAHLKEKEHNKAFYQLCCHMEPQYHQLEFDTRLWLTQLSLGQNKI
UniProt P37690: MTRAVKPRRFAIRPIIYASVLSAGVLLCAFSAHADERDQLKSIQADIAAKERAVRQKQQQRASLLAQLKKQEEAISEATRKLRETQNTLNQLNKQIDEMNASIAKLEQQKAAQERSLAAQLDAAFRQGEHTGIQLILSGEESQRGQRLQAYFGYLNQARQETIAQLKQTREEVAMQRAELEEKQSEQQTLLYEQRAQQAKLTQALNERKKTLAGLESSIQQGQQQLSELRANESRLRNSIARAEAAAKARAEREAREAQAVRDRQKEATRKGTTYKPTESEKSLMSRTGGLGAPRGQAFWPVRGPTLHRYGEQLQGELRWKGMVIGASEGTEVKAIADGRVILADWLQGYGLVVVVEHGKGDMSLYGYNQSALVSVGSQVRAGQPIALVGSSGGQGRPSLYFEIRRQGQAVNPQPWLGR
UniProt P36649: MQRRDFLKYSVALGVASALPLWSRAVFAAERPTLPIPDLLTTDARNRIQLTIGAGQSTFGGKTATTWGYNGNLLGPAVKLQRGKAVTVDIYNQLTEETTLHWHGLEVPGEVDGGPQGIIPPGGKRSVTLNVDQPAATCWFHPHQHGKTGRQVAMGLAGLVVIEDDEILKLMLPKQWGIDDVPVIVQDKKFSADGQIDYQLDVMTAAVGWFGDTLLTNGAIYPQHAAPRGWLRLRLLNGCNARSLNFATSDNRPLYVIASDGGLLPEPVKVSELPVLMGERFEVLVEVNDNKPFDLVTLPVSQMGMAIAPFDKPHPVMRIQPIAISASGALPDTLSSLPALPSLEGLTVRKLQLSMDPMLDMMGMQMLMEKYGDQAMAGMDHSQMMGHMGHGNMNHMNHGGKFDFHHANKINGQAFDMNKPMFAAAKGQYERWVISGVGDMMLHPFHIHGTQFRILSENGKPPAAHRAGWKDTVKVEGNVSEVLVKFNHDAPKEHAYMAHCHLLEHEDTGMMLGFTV
UniProt P40719: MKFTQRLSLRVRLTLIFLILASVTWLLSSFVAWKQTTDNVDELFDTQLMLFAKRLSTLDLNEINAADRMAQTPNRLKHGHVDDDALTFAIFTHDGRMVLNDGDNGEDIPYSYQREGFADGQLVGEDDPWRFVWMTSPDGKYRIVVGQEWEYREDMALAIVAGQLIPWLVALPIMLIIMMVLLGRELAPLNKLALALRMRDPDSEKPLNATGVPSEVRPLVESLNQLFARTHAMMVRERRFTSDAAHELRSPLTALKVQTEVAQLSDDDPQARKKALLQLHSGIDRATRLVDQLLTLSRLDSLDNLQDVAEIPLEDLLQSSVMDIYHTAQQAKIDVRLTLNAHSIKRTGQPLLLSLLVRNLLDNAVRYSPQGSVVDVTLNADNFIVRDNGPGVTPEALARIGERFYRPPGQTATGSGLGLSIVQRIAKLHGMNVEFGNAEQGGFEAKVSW
UniProt P37313: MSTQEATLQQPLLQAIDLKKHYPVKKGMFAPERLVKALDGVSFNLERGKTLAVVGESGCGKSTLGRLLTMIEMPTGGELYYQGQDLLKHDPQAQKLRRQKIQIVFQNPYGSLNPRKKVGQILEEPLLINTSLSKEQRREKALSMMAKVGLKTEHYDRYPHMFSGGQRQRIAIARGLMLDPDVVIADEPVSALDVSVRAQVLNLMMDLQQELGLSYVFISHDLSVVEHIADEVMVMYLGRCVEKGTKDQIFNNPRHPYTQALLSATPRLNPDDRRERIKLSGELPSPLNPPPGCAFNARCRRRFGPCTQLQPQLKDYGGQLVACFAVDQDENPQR
UniProt P36645: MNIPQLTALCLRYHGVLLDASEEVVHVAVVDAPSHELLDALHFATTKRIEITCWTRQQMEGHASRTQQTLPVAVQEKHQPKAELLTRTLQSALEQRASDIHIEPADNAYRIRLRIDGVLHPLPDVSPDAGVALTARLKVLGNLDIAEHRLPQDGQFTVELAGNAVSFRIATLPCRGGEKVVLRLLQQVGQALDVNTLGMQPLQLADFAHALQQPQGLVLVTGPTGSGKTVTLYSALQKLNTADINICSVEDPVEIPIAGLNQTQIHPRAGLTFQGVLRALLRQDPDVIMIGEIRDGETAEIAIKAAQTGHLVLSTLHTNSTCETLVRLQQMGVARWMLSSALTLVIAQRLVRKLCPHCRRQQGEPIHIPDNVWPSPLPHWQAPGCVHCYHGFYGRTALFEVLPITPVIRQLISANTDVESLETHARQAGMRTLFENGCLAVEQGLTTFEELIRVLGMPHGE
UniProt P37751: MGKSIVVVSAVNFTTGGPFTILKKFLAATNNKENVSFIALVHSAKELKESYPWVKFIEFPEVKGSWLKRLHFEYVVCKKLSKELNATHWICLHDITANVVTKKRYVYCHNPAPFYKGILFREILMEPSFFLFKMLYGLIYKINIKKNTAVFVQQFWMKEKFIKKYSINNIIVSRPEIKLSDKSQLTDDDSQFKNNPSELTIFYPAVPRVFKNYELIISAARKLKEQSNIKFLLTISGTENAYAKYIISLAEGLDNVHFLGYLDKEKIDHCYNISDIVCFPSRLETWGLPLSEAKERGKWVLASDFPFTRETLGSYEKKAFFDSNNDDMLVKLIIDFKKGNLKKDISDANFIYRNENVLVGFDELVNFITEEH

Compound in the assay: CC1(C)S[C@@H]2[C@H](NC(=O)[C@H](N)c3ccccc3)C(=O)N2[C@H]1C(=O)O [ampicillin]
Kind of assay: log2 fold change of tryptic peptide abundance, ligand vs vehicle (limited proteolysis) (log2 ratio); higher = more trypsin-susceptible (destabilized). As to conditions: ligand concentration: 10 uM; sample: E. coli crude lysate.
Regarding “UniProt P37657 (peptide sequence: GVLVALRPVPGIR, peptide start residue: 391)”, the log2 fold change was -0.239.
The figure for “UniProt P33916 (peptide sequence: HRYPAEFSGGQR, peptide start residue: 420)” is 0.635.
The figure for “UniProt P45527 (peptide sequence: WQQTPQGLESR, peptide start residue: 201)” is -0.0708; for “UniProt P37327 (peptide sequence: AMAIHEHIR, peptide start residue: 37)” it is -0.32; for “UniProt P38036 (peptide sequence: FNHLFQSIK, peptide start residue: 379)” it is 0.46.
The figure for “UniProt P39358 (peptide sequence: NIFADESHDIYTVR, peptide start residue: 5)” is 0.289.
Consider “UniProt P37047 (peptide sequence: IIGSGDRER, peptide start residue: 35)”, for which the log2 fold change is -0.839.
Consider “UniProt P42593 (peptide sequence: TTGWIHR, peptide start residue: 575)”, for which the log2 fold change was -0.411.
The figure for “UniProt P38038 (peptide sequence: YVKDGVLTR, peptide start residue: 505)” is 0.249; for “UniProt P45395 (peptide sequence: GFTAEDFALSHPGGALGRK, peptide start residue: 183)” it is -0.771.
The figure for “UniProt P38135 (peptide sequence: EVEDILLQHPK, peptide start residue: 466)” is -0.998; for “UniProt P36667 (peptide sequence: HDDLLTYIK, peptide start residue: 96)” it is -0.378.
The figure for “UniProt P37749 (peptide sequence: GVIYAGNLSR, peptide start residue: 163)” is -0.152.
Take “UniProt P37631 (peptide sequence: FTQWDFIDLVNKHGIAWHEK, peptide start residue: 77)”: the log2 fold change turned out to be 0.14.
The figure for “UniProt P39280 (peptide sequence: VQGAAHFMVSDDEAR, peptide start residue: 290)” is -0.488; for “UniProt P37642 (peptide sequence: VSQALETVTTTAEKVQR, peptide start residue: 31)” it is -0.607.
With “UniProt P39274 (peptide sequence: KIIPLCPFAKHEFDK, peptide start residue: 67)”, the log2 fold change is 0.563.
The figure for “UniProt P39310 (peptide sequence: TMAQLFR, peptide start residue: 138)” is 0.15; for “UniProt P42624 (peptide sequence: LLGYASLR, peptide start residue: 34)” it is 0.125.
The figure for “UniProt P36999 (peptide sequence: NSYICPQRHQFDMAK, peptide start residue: 17)” is -1.21; for “UniProt P37637 (peptide sequence: KVYVQAGTPFR, peptide start residue: 768)” it is -0.33.
The figure for “UniProt P41039 (peptide sequence: REAIPGVR, peptide start residue: 51)” is -0.284; for “UniProt P38051 (peptide sequence: QAQQLGEWLMADDKNQR, peptide start residue: 267)” it is 0.316; for “UniProt P42597 (peptide sequence: NAPEPFLR, peptide start residue: 109)” it is -0.232.
For the target “UniProt P37690 (peptide sequence: SIQADIAAKER, peptide start residue: 42)”, the log2 fold change is -0.477.
Take “UniProt P36649 (peptide sequence: FDFHHANK, peptide start residue: 402)”: the log2 fold change came to 0.0396.
The figure for “UniProt P38684 (peptide sequence: ERSTVGIILVTGR, peptide start residue: 70)” is 0.481; for “UniProt P40719 (peptide sequence: LTLNAHSIK, peptide start residue: 337)” it is 0.133.
The figure for “UniProt P33915 (peptide sequence: AAQALGVSDR, peptide start residue: 237)” is -0.204; for “UniProt P42904 (peptide sequence: INVGNMHYANGK, peptide start residue: 102)” it is 0.0447; for “UniProt P45551 (peptide sequence: SEQGTMAMTHMASALMR, peptide start residue: 39)” it is 0.094.
The figure for “UniProt P39359 (peptide sequence: LALQNENIVGIKDTIDSVGHLR, peptide start residue: 153)” is -0.352.
As to “UniProt P37313 (peptide sequence: LNPDDRR, peptide start residue: 268)”, the log2 fold change is -0.286.
“UniProt P36645 (peptide sequence: TQQTLPVAVQEK, peptide start residue: 66)”: the log2 fold change is -0.546.
In the case of “UniProt P39325 (peptide sequence: AAETNVAKSEAEKR, peptide start residue: 39)”, the log2 fold change was determined as 0.351.
The figure for “UniProt P37751 (peptide sequence: GKWVLASDFPFTR, peptide start residue: 297)” is -0.259.

The values above are taken from the supplement of paper PMC12819154, “High-throughput peptide-centric local stability assay extends protein–ligand identification to membrane proteins, tissues and bacteria” (Nature Structural & Molecular Biology, 2025).
